Laboratory results as given in paper PMC8639466.
Results are given in words; binding and its absence hold for the method and conditions named. For some of these results: Binding seen in cells or lysates may run through a third protein. Some results given as binding are weak or reduced against the parent protein; the word gives no strength.

Chains of the proteins cited; added tags and fusions are not shown. Lines headed by an entry give the natural chain unless they say otherwise; changes in a name come on top. Residues count along the entry.
UniProt Q08945: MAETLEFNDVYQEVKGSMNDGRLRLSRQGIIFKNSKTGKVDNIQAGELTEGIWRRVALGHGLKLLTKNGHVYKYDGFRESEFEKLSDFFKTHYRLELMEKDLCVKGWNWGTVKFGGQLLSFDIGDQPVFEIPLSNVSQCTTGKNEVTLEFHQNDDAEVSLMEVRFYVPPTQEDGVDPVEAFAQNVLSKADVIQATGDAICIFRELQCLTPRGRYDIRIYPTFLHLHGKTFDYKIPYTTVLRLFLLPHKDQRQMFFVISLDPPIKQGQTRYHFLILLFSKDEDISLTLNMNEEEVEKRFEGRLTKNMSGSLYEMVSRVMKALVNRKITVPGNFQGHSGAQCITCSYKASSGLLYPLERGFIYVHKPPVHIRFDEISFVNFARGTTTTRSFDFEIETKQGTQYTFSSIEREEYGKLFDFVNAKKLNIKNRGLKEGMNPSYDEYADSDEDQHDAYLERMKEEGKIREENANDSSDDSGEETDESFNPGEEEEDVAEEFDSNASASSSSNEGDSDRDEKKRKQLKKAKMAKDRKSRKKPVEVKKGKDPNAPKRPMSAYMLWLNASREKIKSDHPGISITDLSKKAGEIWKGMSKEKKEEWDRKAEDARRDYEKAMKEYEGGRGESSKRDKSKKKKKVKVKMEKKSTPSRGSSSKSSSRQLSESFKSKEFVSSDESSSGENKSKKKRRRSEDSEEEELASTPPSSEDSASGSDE
flag-hSSRP1-PH3/4 (Gly196-Leu430 as printed): residues 196-430 of Q08945
flag-hSSRP1 C-terminal disordered region (Gly617-Glu709): residues 617-709 of Q08945
UniProt P68400: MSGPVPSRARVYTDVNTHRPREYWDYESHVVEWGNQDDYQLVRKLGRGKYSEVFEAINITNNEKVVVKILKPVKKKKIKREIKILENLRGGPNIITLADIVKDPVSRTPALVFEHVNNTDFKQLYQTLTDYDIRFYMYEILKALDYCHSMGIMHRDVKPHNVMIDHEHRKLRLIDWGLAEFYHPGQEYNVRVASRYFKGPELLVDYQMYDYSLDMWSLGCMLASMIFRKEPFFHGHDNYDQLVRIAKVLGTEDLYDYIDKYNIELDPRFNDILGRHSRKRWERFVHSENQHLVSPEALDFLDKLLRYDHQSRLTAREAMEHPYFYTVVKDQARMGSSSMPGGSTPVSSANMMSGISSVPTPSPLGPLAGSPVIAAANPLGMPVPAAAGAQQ

Key:
[1] = target: flag-hSSRP1 C-terminal disordered region (Gly617-Glu709) (human) (UniProt Q08945); test: co-IP; flag-hSSRP1 constructs transfected into HeLa cells; extract supernatant on Flag magnetic beads overnight at 4 °C; Western blot
[2] = target: flag-hSSRP1, wild type, full length (human) (UniProt Q08945); test: as above
[3] = target: flag-hSSRP1-PH3/4 (Gly196-Leu430 as printed) (human) (UniProt Q08945); test: as above
hSSRP1-HMG546-616 = hSSRP1-HMG546-616 (Homo sapiens, UniProt Q08945 546-616); test: SEC; molecular weight calibration of the single protein in solution; both purified

Substance: casein kinase II (CK2) (from UniProt P68400 1-391; P67870 1-215) (complex)
- binding [1]: binds
- binding [2]: binds
- binding [3]: binds

Substance: hSSRP1-HMG 546-616 (from UniProt Q08945 546-616) (domain or fragment)
- binding (hSSRP1-HMG546-616): no binding
